Assay results: the supplement of paper PMC8728848
This is one part of the list.

Key:
Test in all cases: glycan array binding signal (z-score within array); higher = stronger binding
Conditions in all cases: glycan notation: IUPAC condensed, linker removed
[1] = molecular target: GlcNAc(b1-2)Gal(b1-3)GalNAc
Summary of the method: (§1)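 Columns mapping to the same glycan were averaged after glycan names were converted to IUPAC-condensed notation. The data come from 3228 arrays in the Consortium for Functional Glycomics database, limited to those with an available protein sequence. Binding is reported as a within-array Z-score averaged across arrays of one protein sequence and across linkers.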

[2] = molecular target: GlcNAc(b1-2)Man(a1-3)[GlcNAc(b1-2)Man(a1-6)]Man(b1-4)GlcNAc(b1-4)GlcNAc
Summary of the method: as §1

[3] = molecular target: GlcNAc(b1-2)Man(a1-3)[GlcNAc(b1-2)Man(a1-6)]Man(b1-4)GlcNAc(b1-4)[Fuc(a1-6)]GlcNAc
Summary of the method: as §1

[4] = molecular target: GlcNAc(b1-2)[GlcNAc(b1-4)]Man(a1-3)[GlcNAc(b1-2)Man(a1-6)]Man(b1-4)GlcNAc(b1-4)GlcNAc
Summary of the method: as §1

GlcNAc(b1-3)Gal = molecular target: GlcNAc(b1-3)Gal
Summary of the method: as §1

[5] = molecular target: GlcNAc(b1-3)Gal(b1-3)GalNAc
Summary of the method: as §1

GlcNAc(b1-3)Gal(b1-4)Glc = molecular target: GlcNAc(b1-3)Gal(b1-4)Glc
Summary of the method: as §1

[6] = molecular target: GlcNAc(b1-3)Gal(b1-4)GlcNAc
Summary of the method: as §1

[7] = molecular target: GlcNAc(b1-3)Gal(b1-4)GlcNAc(b1-3)Gal(b1-4)GlcNAc
Summary of the method: as §1

GlcNAc(b1-3)GalNAc = molecular target: GlcNAc(b1-3)GalNAc
Summary of the method: as §1

GlcNAc(b1-3)Man = molecular target: GlcNAc(b1-3)Man
Summary of the method: as §1

[8] = molecular target: GlcNAc(b1-3)[GlcNAc(b1-4)][GlcNAc(b1-6)]GlcNAc
Summary of the method: as §1

[9] = molecular target: GlcNAc(b1-3)[GlcNAc(b1-6)]Gal(b1-4)GlcNAc
Summary of the method: as §1

[10] = molecular target: GlcNAc(b1-3)[GlcNAc(b1-6)]GalNAc
Summary of the method: as §1

[11] = molecular target: GlcNAc(b1-4)Gal(b1-4)GlcNAc
Summary of the method: as §1

GlcNAc(b1-4)GlcNAc = molecular target: GlcNAc(b1-4)GlcNAc
Summary of the method: as §1

[12] = molecular target: GlcNAc(b1-4)GlcNAc(b1-4)GlcNAc
Summary of the method: as §1

[13] = molecular target: GlcNAc(b1-4)GlcNAc(b1-4)GlcNAc(b1-4)GlcNAc(b1-4)GlcNAc
Summary of the method: as §1

[14] = molecular target: GlcNAc(b1-4)GlcNAc(b1-4)GlcNAc(b1-4)GlcNAc(b1-4)GlcNAc(b1-4)GlcNAc
Summary of the method: as §1

[15] = molecular target: GlcNAc(b1-4)[GlcNAc(b1-6)]GalNAc
Summary of the method: as §1

[16] = molecular target: GlcNAc(b1-6)Gal(b1-4)GlcNAc
Summary of the method: as §1

GlcNAc(b1-6)GalNAc = molecular target: GlcNAc(b1-6)GalNAc
Summary of the method: as §1

GlcNAc3Prop(b1-4)GlcNAc = molecular target: GlcNAc3Prop(b1-4)GlcNAc
Summary of the method: as §1

[17] = molecular target: GlcNAc6S(b1-3)Gal(b1-4)GlcNAc
Summary of the method: as §1

Kdn(a2-3)Gal(b1-3)GalNAc = molecular target: Kdn(a2-3)Gal(b1-3)GalNAc
Summary of the method: as §1

Kdn(a2-3)Gal(b1-3)GlcNAc = molecular target: Kdn(a2-3)Gal(b1-3)GlcNAc
Summary of the method: as §1

Kdn(a2-3)Gal(b1-4)Glc = molecular target: Kdn(a2-3)Gal(b1-4)Glc
Summary of the method: as §1

Kdn(a2-3)Gal(b1-4)GlcNAc = molecular target: Kdn(a2-3)Gal(b1-4)GlcNAc
Summary of the method: as §1

[18] = molecular target: Kdn(a2-3)Gal(b1-4)[Fuc(a1-3)]GlcNAc
Summary of the method: as §1

Kdn(a2-6)Gal(b1-4)GlcNAc = molecular target: Kdn(a2-6)Gal(b1-4)GlcNAc
Summary of the method: as §1

[19] = molecular target: Man(a1-2)Man(a1-2)Man(a1-3)Man
Summary of the method: as §1

[20] = molecular target: Man(a1-2)Man(a1-2)Man(a1-6)[Man(a1-3)]Man
Summary of the method: as §1

Man(a1-2)Man(a1-3)Man = molecular target: Man(a1-2)Man(a1-3)Man
Summary of the method: as §1

[21] = molecular target: Man(a1-2)Man(a1-3)[Man(a1-2)Man(a1-6)]Man
Summary of the method: as §1

[22] = molecular target: Man(a1-2)Man(a1-3)[Man(a1-2)Man(a1-6)]Man(a1-6)[Man(a1-2)Man(a1-2)Man(a1-3)]Man
Summary of the method: as §1

[23] = molecular target: Man(a1-2)Man(a1-3)[Man(a1-2)Man(a1-6)]Man(a1-6)[Man(a1-2)Man(a1-2)Man(a1-3)]Man(b1-4)GlcNAc(b1-4)GlcNAc
Summary of the method: as §1

[24] = molecular target: Man(a1-2)Man(a1-3)[Man(a1-6)]Man(a1-6)[Man(a1-2)Man(a1-3)]Man(b1-4)GlcNAc(b1-4)GlcNAc
Summary of the method: as §1

[25] = molecular target: Man(a1-2)Man(a1-6)[Man(a1-3)]Man(a1-6)[Man(a1-2)Man(a1-2)Man(a1-3)]Man
Summary of the method: as §1

B1: SAG1 (Toxoplasma gondii), P13664 (protein)
chain: MSVSLHHFIISSGFLTSMFPKAVRRAVTAGVFAAPTLMSFLRCGVMASDPPLVANQVVTCPDKKSTAAVILTPTENHFTLKCPKTALTEPPTLAYSPNRQICPAGTTSSCTSKAVTLSSLIPEAEDSWWTGDSASLDTAGIKLTVPIEKFPVTTQTFVVGCIKGDDAQSCMVTVTVQARASSVVNNVARCSYGADSTLGPVKLSAEGPTTMTLVCGKDGVKVPQDNNQYCSGTTLTGCNEKSFKDILPKLTENPWQGNASSDKGATLTIKKEAFPAESKSVIIGCTGGSPEKHHCTVKLEFAGAAGSAKSAAGTASHVSIFAMVIGLIGSIAACVA
[1]
  glycan array binding signal (z-score): -0.2
[2]
  glycan array binding signal (z-score): -0.251
[3]
  glycan array binding signal (z-score): -0.104
[4]
  glycan array binding signal (z-score): -0.655
GlcNAc(b1-3)Gal
  glycan array binding signal (z-score): -0.149
[5]
  glycan array binding signal (z-score): 0.7
GlcNAc(b1-3)Gal(b1-4)Glc
  glycan array binding signal (z-score): -0.136
[6]
  glycan array binding signal (z-score): -0.25
[7]
  glycan array binding signal (z-score): -0.287
GlcNAc(b1-3)GalNAc
  glycan array binding signal (z-score): -0.232
GlcNAc(b1-3)Man
  glycan array binding signal (z-score): -0.457
[8]
  glycan array binding signal (z-score): -0.444
[9]
  glycan array binding signal (z-score): -0.701
[10]
  glycan array binding signal (z-score): -0.405
[11]
  glycan array binding signal (z-score): -1.12
GlcNAc(b1-4)GlcNAc
  glycan array binding signal (z-score): -0.717
[12]
  glycan array binding signal (z-score): -0.764
[13]
  glycan array binding signal (z-score): -0.745
[14]
  glycan array binding signal (z-score): -0.674
[15]
  glycan array binding signal (z-score): 0.017
[16]
  glycan array binding signal (z-score): -1.12
GlcNAc(b1-6)GalNAc
  glycan array binding signal (z-score): -0.384
GlcNAc3Prop(b1-4)GlcNAc
  glycan array binding signal (z-score): -0.588
[17]
  glycan array binding signal (z-score): -0.139
Kdn(a2-3)Gal(b1-3)GalNAc
  glycan array binding signal (z-score): 0.938
Kdn(a2-3)Gal(b1-3)GlcNAc
  glycan array binding signal (z-score): -0.737
Kdn(a2-3)Gal(b1-4)Glc
  glycan array binding signal (z-score): 0.393
Kdn(a2-3)Gal(b1-4)GlcNAc
  glycan array binding signal (z-score): -0.051
[18]
  glycan array binding signal (z-score): -0.429
Kdn(a2-6)Gal(b1-4)GlcNAc
  glycan array binding signal (z-score): 0.139
[19]
  glycan array binding signal (z-score): -0.604
[20]
  glycan array binding signal (z-score): 0.319
Man(a1-2)Man(a1-3)Man
  glycan array binding signal (z-score): -0.315
[21]
  glycan array binding signal (z-score): 0.125
[22]
  glycan array binding signal (z-score): -0.757
[23]
  glycan array binding signal (z-score): 0.212
[24]
  glycan array binding signal (z-score): -0.334
[25]
  glycan array binding signal (z-score): -0.527
